In paper PMC6172828:
No constants are given. Whether binding was seen depends on the method and setting. Binding seen in cells or lysates may run through a third protein. Here binding means that the protein was enriched with, or labelled near, the bait; the list need not be complete. A no says only that the protein was not detected with the bait. Where a sequence is shown, tags or fusion partners need not be part of it.

T1: 3xFLAG-ATF7IP K16R mutant (stably expressed in Atf7ip KO mESCs) (mouse) (UniProt Q7TT18)
T1 sequence: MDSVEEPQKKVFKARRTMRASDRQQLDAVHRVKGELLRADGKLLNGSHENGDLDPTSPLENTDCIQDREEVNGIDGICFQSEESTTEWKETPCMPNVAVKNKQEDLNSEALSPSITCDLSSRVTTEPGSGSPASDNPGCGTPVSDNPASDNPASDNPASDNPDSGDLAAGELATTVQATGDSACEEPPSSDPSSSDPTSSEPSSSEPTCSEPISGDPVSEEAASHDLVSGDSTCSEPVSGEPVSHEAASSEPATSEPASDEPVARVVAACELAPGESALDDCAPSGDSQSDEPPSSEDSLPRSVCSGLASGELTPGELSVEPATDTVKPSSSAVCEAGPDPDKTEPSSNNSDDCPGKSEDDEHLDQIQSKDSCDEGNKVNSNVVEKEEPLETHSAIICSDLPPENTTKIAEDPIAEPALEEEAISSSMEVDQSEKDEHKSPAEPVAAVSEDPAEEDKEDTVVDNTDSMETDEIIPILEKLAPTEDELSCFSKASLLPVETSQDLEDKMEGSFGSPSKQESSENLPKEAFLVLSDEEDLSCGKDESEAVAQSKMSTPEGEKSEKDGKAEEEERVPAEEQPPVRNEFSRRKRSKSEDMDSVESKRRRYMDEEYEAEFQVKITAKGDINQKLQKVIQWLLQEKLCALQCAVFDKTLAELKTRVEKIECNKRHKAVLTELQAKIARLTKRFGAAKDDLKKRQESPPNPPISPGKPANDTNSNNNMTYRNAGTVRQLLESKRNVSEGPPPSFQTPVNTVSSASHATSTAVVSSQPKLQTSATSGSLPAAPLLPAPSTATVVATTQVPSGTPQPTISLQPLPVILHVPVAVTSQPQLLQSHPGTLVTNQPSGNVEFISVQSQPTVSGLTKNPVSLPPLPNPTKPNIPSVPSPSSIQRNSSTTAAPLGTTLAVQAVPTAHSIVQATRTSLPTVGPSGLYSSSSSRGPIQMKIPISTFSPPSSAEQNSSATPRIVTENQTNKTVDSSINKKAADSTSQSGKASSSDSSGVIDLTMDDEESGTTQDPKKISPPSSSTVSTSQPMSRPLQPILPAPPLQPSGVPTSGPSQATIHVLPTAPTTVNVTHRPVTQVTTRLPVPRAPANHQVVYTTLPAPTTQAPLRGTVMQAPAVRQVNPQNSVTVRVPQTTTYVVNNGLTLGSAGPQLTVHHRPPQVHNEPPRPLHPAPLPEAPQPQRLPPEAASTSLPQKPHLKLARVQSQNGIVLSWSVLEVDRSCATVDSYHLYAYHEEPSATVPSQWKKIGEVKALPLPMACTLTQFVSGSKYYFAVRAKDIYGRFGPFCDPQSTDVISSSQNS


Molecular target: T1, 3xFLAG-ATF7IP K16R mutant (stably expressed in Atf7ip KO mESCs) (mouse)
Experiment: affinity purification with mass spectrometry; Atf7ip KO mESCs expressing 3xFLAG-ATF7IP WT, K16R or neither; normal-lysis buffer (150 mM NaCl, 1% NP-40), anti-FLAG M2 antibody and Protein G Dynabeads; LC–MS/MS

binding | Binder
no binding | M-phase phosphoprotein 8 (MPP8), endogenous in mESCs (protein, UniProt Q3TYA6 1-858) MAAAAEEGMSAAALVMSVPDSIGRSPESEGVGAGDEEKDAATKGTVAVGDSEEDGEDVFEVERILDMKCEGGKNLYKVRWKGYTSEDDTWEPEVHLEDCKEVLLEFRKKLAENKAKAVRKDIQRLSLNNDIFEADSDSDQQSDTKEDISPRKKKKKIKCKEETSPEDLRKKRTKMGKLKDKFKTELESTSEIIGFDVKTKKRIWEVKEELKDSKKPKKDEIKETKELKKANKRAEVRDLKIKIREDVKENRKTKKERYIESPLESESPNDSLILEDDSEDFISDNREENQNVRSVRDKTAQETVQEGIFEKHLDDLISIEEDAGTRVRRKKTKPRKFEEPKEIKKLESTNAFLERRAIPKKQRNQDKGISNLELNKLPSPVFAQTLKSSRLSGEEKSLKSPDLAEEEKEKKNEPKGKYQKRYDLDKEEKARKEPKVLKSFKEIRNAFDLFKKTTEEKNDVLENNSKREEISLDSKIMNDNKTKDKCSLKEKRNTRDETDTWAYIAAEGDQEVSDSVCQTDETSDGRQPVLSLGMDLQLEWMKLEDFQKHLDGEDEPFITTNRIPNNLLRDAVKNGDYIAVKVALNSNEEYNLDQEDSTGMTLVMLAAAGGQDDLLRLLITKGAKVNGRQKNGTTALIHAAEKNFLTTVAILLEAGAFVNVQQSNGETALMKACKRGNSDIVRLVIECGADCNILSKHQNSALYFAKQCNNVLVYELLKSHLETLSRVAEETIRDYFESRLALLEPVFPIACHRLCEGPDFSTDFNYMPPQNMPEGSGVLLFIFHANFLGKDVIARLCGPCSVQAVVLNDKFQLPVFLDSHFVYSFSPVAGPNKLFIRLTEAPFAKVKLLIGAYRVQLQ
no binding | ADNP, endogenous in mESCs (protein, UniProt Q9Z103 1-1108) MFQLPVNNLGSLRKARKTVKKILSDIGLEYCKEHIEDFKQFEPNDFYLKNTTWEDVGLWDPSLTKNQDYRTKPFCCSACPFSSKFFSAYKSHFRNVHSEDFENRILLNCPYCTFNADKKTLETHIKIFHAPNSSAPSSSLSTFKDKNKNDGLKPKQADNVEQAVYYCKKCTYRDPLYEIVRKHIYREHFQHVAAPYIAKAGEKSLNGAVSLGTNAREECNIHCKRCLFMPKSYEALVQHVIEDHERIGYQVTAMIGHTNVVVPRAKPLMLIAPKPQDKKGMGLPPRISSLASGNVRSLPSQQMVNRLSIPKPNLNSTGVNMMSNVHLQQNNYGVKSVGQSYGVGQSVRLGLGGNAPVSIPQQSQSVKQLLPSGNGRSFGLGAEQRPPAAARYSLQTANTSLPPGQVKSPSVSQSQASRVLGQSSSKPPPAATGPPPSNHCATQKWKICTICNELFPENVYSVHFEKEHKAEKVPAVANYIMKIHNFTSKCLYCNRYLPTDTLLNHMLIHGLSCPYCRSTFNDVEKMAAHMRMVHIDEEMGPKTDSTLSFDLTLQQGSHTNIHLLVTTYNLRDAPAESVAYHAQNNAPVPPKPQPKVQEKADVPVKSSPQAAVPYKKDVGKTLCPLCFSILKGPISDALAHHLRERHQVIQTVHPVEKKLTYKCIHCLGVYTSNMTASTITLHLVHCRGVGKTQNGQDKTNAPSRLNQSPGLAPVKRTYEQMEFPLLKKRKLEEDADSPSCFEEKPEEPVVLALDPKGHEDDSYEARKSFLTKYFNKQPYPTRREIEKLAASLWLWKSDIASHFSNKRKKCVRDCEKYKPGVLLGFNMKELNKVKHEMDFDAEWLFENHDEKDSRVNASKTVDKKHNLGKEDDSFSDSFEHLEEESNGSGSPFDPVFEVEPKIPSDNLEEPVPKVIPEGALESEKLDQKEEEEEEEEEDGSKYETIHLTEEPAKLMHDASDSEVDQDDVVEWKDGASPSESGPGSQQISDFEDNTCEMKPGTWSDESSQSEDARSSKPAAKKKATVQDDTEQLKWKNSSYGKVEGFWSKDQSQWENASENAERLPNPQIEWQNSTIDSEDGEQFDSMTDGVADPMHGSLTGVKLSSQQA
